This data set has as its target T1, HBb (Bd0055) (Bdellovibrio bacteriovorus HD100) (UniProt Q6MRM1).
T1 sequence (looked up): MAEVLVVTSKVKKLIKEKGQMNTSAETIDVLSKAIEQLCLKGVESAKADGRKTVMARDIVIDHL
Kind of data set: crystal structure. To be noted: recombinant protein, residues 1-64, protein details: N-terminal His6 (vector pETHis1a).

The exact form of at least one protein or probe is not confirmed. At least one verdict rests on a figure or table, not on a statement of the authors. Where a protein sequence is shown, tags need not be part of it.

The text below walks through data of article PMC11317129, “Bacterial histone HBb from Bdellovibrio bacteriovorus compacts DNA by bending” (Nucleic Acids Research, 2023).

Turning to “TTAAAGCCCGTTAAAGCCCG (double strand) [20 bp-GC50]”, the binding result by setting is: (HBb-DNA_1) “binds”; (HBb-DNA_2, 9 nt strand in asymmetric unit, contacts T8 S9 K10) “binds”.
